Values quoted from earlier work in patent publication US20260240799A1, “TREATMENT OF PRIMARY BILIARY CHOLANGITIS” (Genfit, priority 2023, published 2026).
For at least one compound, name, drawing or mass did not settle the structure.

System: patients with PBC
Details: cited from earlier work; for response of fatigue to therapy: PBC patients

Row | Structure (SMILES) | response of fatigue to therapy | patients in whom ALP remains elevated (PBC patients currently treated with or intolerant to UDCA, Lammers et al. 2014) | UDCA-treated patients with a suboptimal response (PBC, Ali et al. 2015)
1 | CC[C@H]1[C@@H](O)[C@@H]2[C@H](CC[C@]3(C)[C@@H]([C@H](C)CCC(=O)O)CC[C@@H]23)[C@@]2(C)CC[C@@H](O)C[C@@H]12 [OCA, obeticholic acid] | not responsive |  | 
2 | C[C@H](CCC(=O)O)[C@H]1CC[C@H]2[C@@H]3[C@@H](O)C[C@@H]4C[C@H](O)CC[C@]4(C)[C@H]3CC[C@]12C [UDCA, ursodeoxycholic acid] | not responsive | up to 70% | up to 40%
